Results published in EP1360961A1, “Use of antimicrobial peptides for potentiating the activity of antimicrobial agents” (AM-Pharma B.V., priority 2002, dated 2003).
Part of at least one peptide drawing is inferred or uncertain, most often the ends. Some entries repeat one wording, which the source may state once for all of them. Where no end group is shown, it is not given here.

How the values were obtained:
C. albicans cells = experiment: Sequential exposure of Candida to peptide and fluconazole (preincubation, wash, reincubation with the other agent); assay type: cell-based; settings: antimicrobial peptide removed from the microbes before contact with the microbistatic agent
[1] = system: fluconazole-resistant C. albicans; experiment: In vitro assay for candidacidal activity of hLF-derived peptides and/or fluconazole (co-incubation, CFU count); assay type: cell-based; settings: 1×10^6 CFU/ml, 2 h at 37°C; noncandidacidal peptide concentrations; fluconazole 100-200 µg/ml; Fig. 1

Sequence: KRLFKKLKFSLRKY [DHAVR 3]
- microbicidic effect (C. albicans cells): same microbicidic effect was even observed

Sequence: KRLFKKLLFSLRKY [DHVAR4]
- microbicidic effect (C. albicans cells): same microbicidic effect was even observed

Sequence: RRSVQWCA [hLF(4-11)]
- candidacidal activity [1]: no candidacidal effect
